Measurements taken from the supplement of paper PMC10849652.
Some of the results follow.

Protein sequences, listed by entry. Tags and fused reporters are not part of them. Lines headed by an entry give the natural chain unless they say otherwise; changes in a name come on top.
UniProt Q6AI08: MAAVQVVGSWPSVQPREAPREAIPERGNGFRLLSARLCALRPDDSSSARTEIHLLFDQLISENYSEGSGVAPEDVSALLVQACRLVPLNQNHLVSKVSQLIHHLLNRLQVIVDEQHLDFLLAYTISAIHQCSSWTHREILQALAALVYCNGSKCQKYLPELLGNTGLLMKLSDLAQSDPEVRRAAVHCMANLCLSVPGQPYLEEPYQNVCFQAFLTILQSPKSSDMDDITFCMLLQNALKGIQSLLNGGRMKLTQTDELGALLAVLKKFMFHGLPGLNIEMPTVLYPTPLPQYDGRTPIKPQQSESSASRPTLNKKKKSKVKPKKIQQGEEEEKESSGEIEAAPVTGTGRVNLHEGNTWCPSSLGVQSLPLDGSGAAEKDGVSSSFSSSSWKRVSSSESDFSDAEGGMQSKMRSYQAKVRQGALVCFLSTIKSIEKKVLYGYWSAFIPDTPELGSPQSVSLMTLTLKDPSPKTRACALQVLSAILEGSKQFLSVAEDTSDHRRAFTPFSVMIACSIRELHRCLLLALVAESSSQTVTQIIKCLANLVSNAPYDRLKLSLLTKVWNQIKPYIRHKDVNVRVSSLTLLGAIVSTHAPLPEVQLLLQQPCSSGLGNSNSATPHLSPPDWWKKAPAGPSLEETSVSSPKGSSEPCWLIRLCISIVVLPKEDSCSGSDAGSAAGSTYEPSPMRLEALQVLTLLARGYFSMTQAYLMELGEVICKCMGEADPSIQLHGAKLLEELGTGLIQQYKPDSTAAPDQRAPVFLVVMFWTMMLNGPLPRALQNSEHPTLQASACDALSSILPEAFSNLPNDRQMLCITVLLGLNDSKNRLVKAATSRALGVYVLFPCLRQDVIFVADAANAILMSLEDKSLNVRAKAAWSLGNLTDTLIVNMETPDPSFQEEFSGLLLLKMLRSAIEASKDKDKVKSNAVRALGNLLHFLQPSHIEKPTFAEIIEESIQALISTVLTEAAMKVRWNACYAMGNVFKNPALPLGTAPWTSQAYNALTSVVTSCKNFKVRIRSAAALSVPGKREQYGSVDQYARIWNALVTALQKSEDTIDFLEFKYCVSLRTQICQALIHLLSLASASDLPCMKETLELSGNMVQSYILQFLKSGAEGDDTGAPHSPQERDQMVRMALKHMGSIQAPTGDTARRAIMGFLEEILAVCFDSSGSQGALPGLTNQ
UniProt Q9H0R4: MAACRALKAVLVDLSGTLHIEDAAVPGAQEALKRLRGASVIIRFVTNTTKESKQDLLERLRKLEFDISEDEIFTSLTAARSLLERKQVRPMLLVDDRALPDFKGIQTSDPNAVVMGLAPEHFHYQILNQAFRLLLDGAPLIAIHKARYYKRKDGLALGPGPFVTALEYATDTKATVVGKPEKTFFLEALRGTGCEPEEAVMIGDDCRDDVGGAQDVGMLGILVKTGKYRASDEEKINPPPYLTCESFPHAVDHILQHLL
UniProt P78417: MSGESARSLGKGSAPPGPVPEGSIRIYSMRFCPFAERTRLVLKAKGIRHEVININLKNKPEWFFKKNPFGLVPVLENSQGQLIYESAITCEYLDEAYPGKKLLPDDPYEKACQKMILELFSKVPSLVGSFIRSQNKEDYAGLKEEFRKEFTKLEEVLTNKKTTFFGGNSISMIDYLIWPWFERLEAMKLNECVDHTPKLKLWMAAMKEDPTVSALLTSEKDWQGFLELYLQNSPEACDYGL
UniProt Q9Y5Q8: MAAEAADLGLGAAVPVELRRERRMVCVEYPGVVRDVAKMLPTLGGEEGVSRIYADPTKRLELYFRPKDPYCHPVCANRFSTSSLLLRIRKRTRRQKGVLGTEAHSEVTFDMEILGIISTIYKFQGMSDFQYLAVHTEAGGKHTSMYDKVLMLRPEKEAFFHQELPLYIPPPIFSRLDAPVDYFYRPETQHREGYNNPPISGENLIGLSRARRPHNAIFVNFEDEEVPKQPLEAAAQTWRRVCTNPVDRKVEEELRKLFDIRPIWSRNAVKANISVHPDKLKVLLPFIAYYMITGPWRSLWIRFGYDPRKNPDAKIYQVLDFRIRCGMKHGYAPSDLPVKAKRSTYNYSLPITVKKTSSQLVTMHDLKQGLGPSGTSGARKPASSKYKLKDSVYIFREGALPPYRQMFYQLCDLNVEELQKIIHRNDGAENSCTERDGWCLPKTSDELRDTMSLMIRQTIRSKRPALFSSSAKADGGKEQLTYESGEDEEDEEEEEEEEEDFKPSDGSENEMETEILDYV
UniProt P52657, whole entry, looked up: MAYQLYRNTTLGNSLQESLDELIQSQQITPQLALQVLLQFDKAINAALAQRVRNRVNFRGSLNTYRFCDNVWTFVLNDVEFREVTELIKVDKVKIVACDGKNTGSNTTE
UniProt P10412, whole entry, looked up: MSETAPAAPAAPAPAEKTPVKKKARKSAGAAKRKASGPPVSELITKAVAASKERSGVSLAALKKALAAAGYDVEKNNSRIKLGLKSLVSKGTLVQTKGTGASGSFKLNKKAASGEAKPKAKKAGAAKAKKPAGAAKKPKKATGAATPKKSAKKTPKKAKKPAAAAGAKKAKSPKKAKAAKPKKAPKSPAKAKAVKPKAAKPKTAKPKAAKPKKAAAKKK
UniProt Q7Z4H3: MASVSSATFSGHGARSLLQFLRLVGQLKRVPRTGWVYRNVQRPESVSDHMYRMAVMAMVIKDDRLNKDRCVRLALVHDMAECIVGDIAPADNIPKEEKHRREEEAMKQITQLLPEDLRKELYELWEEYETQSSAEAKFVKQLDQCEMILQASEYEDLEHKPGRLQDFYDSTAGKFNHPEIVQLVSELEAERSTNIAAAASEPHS
UniProt Q5T447: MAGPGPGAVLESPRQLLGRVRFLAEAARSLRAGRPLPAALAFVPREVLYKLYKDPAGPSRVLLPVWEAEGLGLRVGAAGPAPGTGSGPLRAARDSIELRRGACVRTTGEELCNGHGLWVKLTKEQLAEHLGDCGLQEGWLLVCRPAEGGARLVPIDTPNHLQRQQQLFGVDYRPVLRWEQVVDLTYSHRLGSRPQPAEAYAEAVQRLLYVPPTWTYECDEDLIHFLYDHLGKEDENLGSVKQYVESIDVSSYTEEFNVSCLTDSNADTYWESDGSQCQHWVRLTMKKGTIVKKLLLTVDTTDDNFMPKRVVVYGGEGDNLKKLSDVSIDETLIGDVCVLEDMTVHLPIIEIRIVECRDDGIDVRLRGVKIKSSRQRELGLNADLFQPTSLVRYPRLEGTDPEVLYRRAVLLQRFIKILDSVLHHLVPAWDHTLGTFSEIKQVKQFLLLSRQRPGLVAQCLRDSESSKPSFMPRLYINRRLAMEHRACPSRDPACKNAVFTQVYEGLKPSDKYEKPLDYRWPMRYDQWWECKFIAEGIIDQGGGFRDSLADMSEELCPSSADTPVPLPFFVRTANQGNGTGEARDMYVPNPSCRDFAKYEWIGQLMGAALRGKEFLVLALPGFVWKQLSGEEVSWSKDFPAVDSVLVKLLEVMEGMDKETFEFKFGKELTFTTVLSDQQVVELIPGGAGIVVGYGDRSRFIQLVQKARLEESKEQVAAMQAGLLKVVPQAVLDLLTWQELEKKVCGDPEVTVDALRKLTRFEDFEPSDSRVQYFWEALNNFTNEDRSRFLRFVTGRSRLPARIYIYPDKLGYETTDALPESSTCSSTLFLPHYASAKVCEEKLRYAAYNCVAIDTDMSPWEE
UniProt Q92769, whole entry, looked up: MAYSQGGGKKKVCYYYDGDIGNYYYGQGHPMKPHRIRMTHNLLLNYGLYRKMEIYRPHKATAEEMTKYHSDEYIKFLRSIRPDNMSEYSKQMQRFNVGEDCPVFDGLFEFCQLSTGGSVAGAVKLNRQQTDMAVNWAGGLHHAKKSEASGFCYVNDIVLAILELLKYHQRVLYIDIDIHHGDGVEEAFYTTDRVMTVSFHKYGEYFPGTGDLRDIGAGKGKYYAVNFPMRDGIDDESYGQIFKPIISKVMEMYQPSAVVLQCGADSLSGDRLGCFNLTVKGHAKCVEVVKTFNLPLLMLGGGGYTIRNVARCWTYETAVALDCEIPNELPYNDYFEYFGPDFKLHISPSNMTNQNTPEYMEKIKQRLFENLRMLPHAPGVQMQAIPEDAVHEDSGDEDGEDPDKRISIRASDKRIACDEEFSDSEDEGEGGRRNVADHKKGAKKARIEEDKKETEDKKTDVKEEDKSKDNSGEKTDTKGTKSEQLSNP
UniProt Q9P035: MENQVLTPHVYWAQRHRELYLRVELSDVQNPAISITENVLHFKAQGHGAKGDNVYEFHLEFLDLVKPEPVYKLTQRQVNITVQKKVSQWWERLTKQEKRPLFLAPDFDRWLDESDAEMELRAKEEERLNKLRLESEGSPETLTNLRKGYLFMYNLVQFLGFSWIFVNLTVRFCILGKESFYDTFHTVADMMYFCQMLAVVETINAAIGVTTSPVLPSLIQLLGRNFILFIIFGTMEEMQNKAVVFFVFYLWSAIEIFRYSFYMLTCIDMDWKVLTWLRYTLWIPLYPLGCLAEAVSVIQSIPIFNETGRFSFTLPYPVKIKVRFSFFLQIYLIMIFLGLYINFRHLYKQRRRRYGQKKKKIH
UniProt P55084: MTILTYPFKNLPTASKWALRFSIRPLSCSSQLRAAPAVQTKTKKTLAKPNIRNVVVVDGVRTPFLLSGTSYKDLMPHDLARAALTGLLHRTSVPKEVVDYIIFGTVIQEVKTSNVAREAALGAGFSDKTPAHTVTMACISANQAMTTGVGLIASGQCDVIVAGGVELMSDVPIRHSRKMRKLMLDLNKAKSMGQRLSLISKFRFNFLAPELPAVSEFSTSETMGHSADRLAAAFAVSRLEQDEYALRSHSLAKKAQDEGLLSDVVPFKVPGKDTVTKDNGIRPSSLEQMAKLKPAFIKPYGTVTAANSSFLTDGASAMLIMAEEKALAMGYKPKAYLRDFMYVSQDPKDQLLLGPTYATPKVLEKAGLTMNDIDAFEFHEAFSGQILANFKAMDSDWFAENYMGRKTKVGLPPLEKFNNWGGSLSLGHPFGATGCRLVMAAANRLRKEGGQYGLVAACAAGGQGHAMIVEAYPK
UniProt P16403, whole entry, looked up: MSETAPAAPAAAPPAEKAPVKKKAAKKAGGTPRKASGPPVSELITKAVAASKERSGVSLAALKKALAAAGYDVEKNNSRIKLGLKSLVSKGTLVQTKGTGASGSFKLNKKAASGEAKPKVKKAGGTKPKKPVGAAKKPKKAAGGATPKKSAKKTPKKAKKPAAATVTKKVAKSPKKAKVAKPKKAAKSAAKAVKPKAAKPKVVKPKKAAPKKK
UniProt Q9BXW7: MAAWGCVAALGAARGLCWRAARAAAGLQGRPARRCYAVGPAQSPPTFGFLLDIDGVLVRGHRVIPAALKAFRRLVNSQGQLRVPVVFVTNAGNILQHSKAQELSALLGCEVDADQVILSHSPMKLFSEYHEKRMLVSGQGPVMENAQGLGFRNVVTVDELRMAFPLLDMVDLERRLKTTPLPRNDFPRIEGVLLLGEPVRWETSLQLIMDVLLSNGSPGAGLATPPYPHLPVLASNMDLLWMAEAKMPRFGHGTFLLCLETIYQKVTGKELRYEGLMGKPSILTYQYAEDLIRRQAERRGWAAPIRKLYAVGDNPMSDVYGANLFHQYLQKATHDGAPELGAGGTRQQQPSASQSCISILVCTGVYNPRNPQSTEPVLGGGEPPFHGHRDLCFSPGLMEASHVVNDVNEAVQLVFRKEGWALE
UniProt P40939: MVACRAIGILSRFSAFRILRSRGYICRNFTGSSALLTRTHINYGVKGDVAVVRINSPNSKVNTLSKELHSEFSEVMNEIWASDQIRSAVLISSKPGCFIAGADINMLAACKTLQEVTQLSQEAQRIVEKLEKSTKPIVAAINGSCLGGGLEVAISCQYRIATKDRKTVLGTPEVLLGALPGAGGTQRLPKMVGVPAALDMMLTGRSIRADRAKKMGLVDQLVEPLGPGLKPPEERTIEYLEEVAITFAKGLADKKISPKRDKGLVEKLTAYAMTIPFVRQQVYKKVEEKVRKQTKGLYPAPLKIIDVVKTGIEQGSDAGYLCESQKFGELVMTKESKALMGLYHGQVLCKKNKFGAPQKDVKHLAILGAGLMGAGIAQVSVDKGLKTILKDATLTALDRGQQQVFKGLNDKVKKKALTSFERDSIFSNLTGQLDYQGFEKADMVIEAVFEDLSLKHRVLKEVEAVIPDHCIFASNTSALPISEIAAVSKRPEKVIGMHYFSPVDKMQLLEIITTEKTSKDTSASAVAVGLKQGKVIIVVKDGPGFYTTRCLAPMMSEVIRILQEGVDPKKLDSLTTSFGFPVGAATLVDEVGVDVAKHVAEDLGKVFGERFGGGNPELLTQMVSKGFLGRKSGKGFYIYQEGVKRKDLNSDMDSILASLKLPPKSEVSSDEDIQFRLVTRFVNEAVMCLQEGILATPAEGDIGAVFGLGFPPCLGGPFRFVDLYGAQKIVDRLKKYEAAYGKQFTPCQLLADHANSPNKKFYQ
UniProt P02008: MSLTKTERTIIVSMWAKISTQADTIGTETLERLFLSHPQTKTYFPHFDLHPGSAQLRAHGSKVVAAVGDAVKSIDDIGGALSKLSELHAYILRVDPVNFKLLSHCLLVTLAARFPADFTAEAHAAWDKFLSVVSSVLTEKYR
UniProt P09105: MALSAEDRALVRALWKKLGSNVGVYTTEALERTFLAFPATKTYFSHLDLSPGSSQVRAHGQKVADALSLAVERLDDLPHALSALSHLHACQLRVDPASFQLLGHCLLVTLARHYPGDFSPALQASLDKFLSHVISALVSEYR

Assays:
Test in all cases: log2 fold change, soluble protein after heating vs DMSO (PISA); higher = thermal stabilisation; K562 cells, 10 uM, 30 min; active = over 0.2 and 3.5 SD of the protein, either way, in both replicates (recomputed)
[1] = compound: COC1=CC=C(C=C1)CN2C=CC3=C2C=C(C=C3)C(=O)NO
Summary of the method: (§1)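 K562 cells at 2×10^6 cells/mL were treated with 10 μM compound for 30 min. Aliquots were heated for 3 min across 48°C-58°C, pooled, and extracted in PBS with 0.5% NP-40 at 4°C; soluble protein was the supernatant after 21,000xg for 90 min. Soluble protein was quantified by TMTpro 16plex LC-MS/MS with channel sums equalised, and reported as log2 fold change in thermal stability against DMSO controls, with values from duplicates.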

filanesib = compound: CON(C)C(=O)N1N=C(c2cc(F)ccc2F)S[C@@]1(CCCN)c1ccccc1 [filanesib]
Summary of the method: as §1

zotarolimus = compound: CO[C@H]1C[C@@H]2CC[C@@H](C)[C@@](O)(O2)C(=O)C(=O)N2CCCC[C@H]2C(=O)O[C@H]([C@H](C)C[C@@H]2CC[C@H](n3cnnn3)[C@H](OC)C2)CC(=O)[C@H](C)/C=C(\C)[C@@H](O)[C@@H](OC)C(=O)[C@H](C)C[C@H](C)/C=C/C=C/C=C/1C [zotarolimus]
Summary of the method: as §1

idasanutlin = compound: COc1cc(C(=O)O)ccc1NC(=O)[C@@H]1N[C@@H](CC(C)(C)C)[C@](C#N)(c2ccc(Cl)cc2F)[C@H]1c1cccc(Cl)c1F [idasanutlin]
Summary of the method: as §1

alisertib = compound: COc1cc(Nc2ncc3c(n2)-c2ccc(Cl)cc2C(c2c(F)cccc2OC)=NC3)ccc1C(=O)O [alisertib]
Summary of the method: as §1

[2] = compound: COc1cc2nc(-c3cc(F)ccc3O)nc(N[C@@H]3CNC[C@H]3C(C)(C)O)c2cc1OC
Summary of the method: as §1

gefitinib = compound: COc1cc2ncnc(Nc3ccc(F)c(Cl)c3)c2cc1OCCCN1CCOCC1 [gefitinib]
Summary of the method: as §1

[3] = compound: COc1cccc2cc(-c3nc([C@H]4CC[C@H](C(=O)O)CC4)n4ncnc(N)c34)[nH]c12
Summary of the method: as §1

lapatinib = compound: CS(=O)(=O)CCNCc1ccc(-c2ccc3ncnc(Nc4ccc(OCc5cccc(F)c5)c(Cl)c4)c3c2)o1 [lapatinib]
Summary of the method: as §1

pictilisib = compound: CS(=O)(=O)N1CCN(Cc2cc3nc(-c4cccc5[nH]ncc45)nc(N4CCOCC4)c3s2)CC1 [pictilisib]
Summary of the method: as §1

Measured: log2 fold change

HDAC4 (UniProt P56524)
inactive: [1] 0.002 | filanesib 0.022 | zotarolimus -0.08 | idasanutlin 0.127 | alisertib -0.004 | [2] -0.051 | gefitinib -0.046 | [3] 0.072 | lapatinib -0.111 | pictilisib -0.05

HEATR6 (UniProt Q6AI08)
inactive: [1] 0.33 | filanesib -0.053 | zotarolimus -0.064 | idasanutlin -0.131 | alisertib -0.079 | [2] 0.077 | gefitinib 0.044 | [3] -0.007 | lapatinib -0.011

HDHD2 (UniProt Q9H0R4)
inactive: [1] 0.048 | filanesib -0.097 | zotarolimus -0.027 | idasanutlin 0.006 | alisertib -0.06 | [2] -0.007 | gefitinib 0.024 | [3] 0.085 | lapatinib -0.03 | pictilisib -0.011

GSTO1 (UniProt P78417)
inactive: [1] -0.015 | filanesib -0.031 | zotarolimus -0.017 | idasanutlin -0.037 | alisertib -0.063 | [2] -0.048 | gefitinib -0.001 | [3] 0.021 | lapatinib 0.02 | pictilisib -0.033

GTPBP3 isoform 2 (UniProt Q969Y2)
inactive: [1] -0.016 | filanesib -0.061 | zotarolimus 0.007 | idasanutlin 0.002 | alisertib -0.068 | [2] 0.004 | gefitinib 0.037 | [3] 0.094 | lapatinib -0.026 | pictilisib 0.046

GTF3C5 isoform 3 (UniProt Q9Y5Q8)
inactive: [1] -0.115 | filanesib -0.039 | zotarolimus 0.116 | idasanutlin -0.068 | alisertib 0.064 | [2] 0.024 | gefitinib -0.003 | [3] -0.034 | lapatinib 0.13 | pictilisib -0.148

HEATR5A (UniProt Q86XA9)
inactive: [1] -0.214 | filanesib -0.141 | zotarolimus 0.107 | idasanutlin -0.043 | alisertib -0.034 | [2] -0.107 | gefitinib -0.106 | [3] -0.239 | lapatinib 0.076 | pictilisib -0.027

GTF2A2 (UniProt P52657)
inactive: [1] -0.067 | filanesib -0.043 | zotarolimus -0.006 | idasanutlin -0.036 | alisertib 0.018 | [2] 0.044 | gefitinib -0.028 | [3] 0.032 | lapatinib -0.042 | pictilisib 0.041

H1-4 (UniProt P10412)
inactive: [1] -0.103 | filanesib 0.466 | zotarolimus -0.033 | idasanutlin 0.153 | alisertib -0.035 | [2] -0.031 | gefitinib 0.024 | [3] -0.335 | lapatinib 0.098 | pictilisib -0.142

GTF3C1 (UniProt Q12789)
inactive: [1] 0.101 | filanesib 0.207 | zotarolimus -0.26 | idasanutlin -0.221 | alisertib -0.165 | [2] 0.154 | gefitinib 0.017 | [3] 0.054 | lapatinib -0.332 | pictilisib 0.149

HARS2 (UniProt P49590)
inactive: [1] -0.003 | filanesib 0.008 | zotarolimus -0.005 | idasanutlin 0.008 | alisertib -0.019 | [2] 0.015 | gefitinib 0.018 | [3] 0.046 | lapatinib -0.016 | pictilisib 0.029

GTF2I (UniProt P78347)
inactive: [1] -0.09 | filanesib 0.236 | zotarolimus 0.027 | idasanutlin 0.218 | alisertib -0.016 | [2] -0.185 | gefitinib 0.022 | [3] -0.254 | lapatinib 0.129 | pictilisib 0.028

HDDC2 (UniProt Q7Z4H3)
inactive: [1] -0.098 | filanesib -0.037 | zotarolimus 0.049 | idasanutlin -0.068 | alisertib 0.04 | [2] -0.05 | gefitinib -0.022 | [3] 0.068 | lapatinib 0.037 | pictilisib 0.064

HEBP2 (UniProt Q9Y5Z4)
inactive: [1] -0.033 | filanesib -0.014 | zotarolimus -0.004 | idasanutlin -0.003 | alisertib -0.031 | [2] 0 | gefitinib 0.013 | [3] 0.022 | lapatinib -0.009 | pictilisib 0.05

HECTD3 (UniProt Q5T447)
inactive: [1] 0.082 | filanesib 0.064 | zotarolimus 0.046 | idasanutlin 0.01 | alisertib 0.039 | [2] 0.035 | gefitinib 0.041 | [3] -0.137 | lapatinib -0.027

HDAC2 (UniProt Q92769)
inactive: [1] -0.144 | filanesib 0.029 | zotarolimus 0.008 | idasanutlin 0.008 | alisertib -0.041 | [2] 0 | gefitinib 0.007 | [3] 0.017 | lapatinib 0.063 | pictilisib 0.024

HEMGN (UniProt Q9BXL5)
inactive: [1] -0.053 | filanesib 0.029 | zotarolimus -0.012 | idasanutlin 0.003 | alisertib -0.015 | [2] 0.005 | gefitinib 0.001 | [3] 0.005 | lapatinib -0.021 | pictilisib 0.013

2 neighbouring entries already listed, quoted:
GTF2I (UniProt P78347)
inactive: [1] -0.09 | filanesib 0.236 | zotarolimus 0.027 | idasanutlin 0.218 | alisertib -0.016 | [2] -0.185 | gefitinib 0.022 | [3] -0.254 | lapatinib 0.129 | pictilisib 0.028

HDDC2 (UniProt Q7Z4H3)
inactive: [1] -0.098 | filanesib -0.037 | zotarolimus 0.049 | idasanutlin -0.068 | alisertib 0.04 | [2] -0.05 | gefitinib -0.022 | [3] 0.068 | lapatinib 0.037 | pictilisib 0.064

Additional results follow:

HEXB (UniProt P07686)
inactive: [1] 0.012 | filanesib -0.092 | zotarolimus -0.042 | idasanutlin 0.018 | alisertib -0.058 | [2] 0.017 | gefitinib 0.005 | [3] 0.044 | lapatinib -0.001 | pictilisib 0.021

HACD3 (UniProt Q9P035)
inactive: [1] -0.037 | filanesib -0.016 | zotarolimus -0.074 | idasanutlin -0.044 | alisertib -0.019 | [2] 0.05 | gefitinib 0.034 | [3] 0.017 | lapatinib 0.008 | pictilisib 0

HADHB (UniProt P55084)
inactive: [1] 0.248 | filanesib 0.094 | zotarolimus 0.038 | idasanutlin -0.263 | alisertib -0.026 | [2] 0.217 | gefitinib 0.17 | [3] -0.085 | lapatinib 0.086 | pictilisib 0.383

GTSF1 (UniProt Q8WW33)
inactive: [1] 0.022 | filanesib -0.045 | zotarolimus 0.013 | idasanutlin 0.022 | alisertib -0.053 | [2] -0.034 | gefitinib -0.011 | [3] 0 | lapatinib 0.018 | pictilisib 0.017

H1-2 (UniProt P16403)
inactive: [1] -0.012 | filanesib 0.453 | zotarolimus 0.01 | idasanutlin 0.146 | alisertib -0.077 | [2] 0.003 | gefitinib -0.048 | [3] -0.323 | lapatinib 0.151 | pictilisib -0.101

HDHD5 (UniProt Q9BXW7)
inactive: [1] -0.038 | filanesib -0.109 | zotarolimus -0.032 | idasanutlin -0.09 | alisertib -0.034 | [2] -0.042 | gefitinib -0.061 | [3] 0.115 | lapatinib 0.167 | pictilisib -0.006

HADHA (UniProt P40939)
inactive: [1] 0.267 | filanesib 0.082 | zotarolimus 0.081 | idasanutlin -0.321 | alisertib -0.035 | [2] 0.155 | gefitinib 0.209 | [3] -0.088 | lapatinib 0.148 | pictilisib 0.425

GUSB (UniProt P08236)
inactive: [1] -0.063 | filanesib -0.016 | zotarolimus 0.014 | idasanutlin 0.034 | alisertib 0.022 | [2] -0.084 | gefitinib -0.013 | [3] -0.027 | lapatinib 0.016 | pictilisib 0.098

GSR (UniProt P00390)
inactive: [1] 0.023 | filanesib -0.065 | zotarolimus -0.039 | idasanutlin -0.049 | alisertib -0.032 | [2] 0.015 | gefitinib -0.016 | [3] 0.043 | lapatinib -0.057 | pictilisib 0.036

HBZ (UniProt P02008)
inactive: [1] 0.012 | filanesib -0.003 | zotarolimus 0.035 | idasanutlin 0.045 | alisertib -0.077 | [2] -0.055 | gefitinib 0.003 | [3] 0.093 | lapatinib 0.007 | pictilisib -0.006

GSTZ1 (UniProt G3V4T6)
inactive: [1] -0.078 | filanesib -0.037 | zotarolimus -0.027 | idasanutlin -0.061 | alisertib 0.048 | [2] -0.01 | gefitinib -0.066 | [3] 0.109 | lapatinib -0.019 | pictilisib 0.079

HBQ1 (UniProt P09105)
inactive: [1] -0.034 | filanesib -0.027 | zotarolimus 0.051 | idasanutlin -0.023 | alisertib -0.115 | [2] -0.05 | gefitinib 0.033 | [3] 0.091 | lapatinib 0.001 | pictilisib -0.012

GSTCD (UniProt Q8NEC7)
inactive: [1] -0.094 | filanesib -0.202 | zotarolimus 0.097 | idasanutlin -0.018 | alisertib -0.151 | [2] 0.044 | gefitinib 0.098 | [3] -0.036 | lapatinib 0.001
